Test results taken from paper PMC12973532.
No constants are given. Whether binding was seen depends on the method and setting. Binding seen in cells or lysates may run through a third protein. A yes stands for co-enrichment or nearness to the bait. Other partners may have been found.

Sequences of proteins named here, by UniProt entry; tags and fusion partners are left off. Residues count along the entry.
UniProt O00264: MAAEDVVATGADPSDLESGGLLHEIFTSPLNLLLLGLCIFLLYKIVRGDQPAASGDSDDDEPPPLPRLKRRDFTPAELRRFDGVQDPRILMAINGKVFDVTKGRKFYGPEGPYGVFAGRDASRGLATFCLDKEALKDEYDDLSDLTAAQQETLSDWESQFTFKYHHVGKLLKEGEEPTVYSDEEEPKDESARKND
UniProt O75027, residues 23-752: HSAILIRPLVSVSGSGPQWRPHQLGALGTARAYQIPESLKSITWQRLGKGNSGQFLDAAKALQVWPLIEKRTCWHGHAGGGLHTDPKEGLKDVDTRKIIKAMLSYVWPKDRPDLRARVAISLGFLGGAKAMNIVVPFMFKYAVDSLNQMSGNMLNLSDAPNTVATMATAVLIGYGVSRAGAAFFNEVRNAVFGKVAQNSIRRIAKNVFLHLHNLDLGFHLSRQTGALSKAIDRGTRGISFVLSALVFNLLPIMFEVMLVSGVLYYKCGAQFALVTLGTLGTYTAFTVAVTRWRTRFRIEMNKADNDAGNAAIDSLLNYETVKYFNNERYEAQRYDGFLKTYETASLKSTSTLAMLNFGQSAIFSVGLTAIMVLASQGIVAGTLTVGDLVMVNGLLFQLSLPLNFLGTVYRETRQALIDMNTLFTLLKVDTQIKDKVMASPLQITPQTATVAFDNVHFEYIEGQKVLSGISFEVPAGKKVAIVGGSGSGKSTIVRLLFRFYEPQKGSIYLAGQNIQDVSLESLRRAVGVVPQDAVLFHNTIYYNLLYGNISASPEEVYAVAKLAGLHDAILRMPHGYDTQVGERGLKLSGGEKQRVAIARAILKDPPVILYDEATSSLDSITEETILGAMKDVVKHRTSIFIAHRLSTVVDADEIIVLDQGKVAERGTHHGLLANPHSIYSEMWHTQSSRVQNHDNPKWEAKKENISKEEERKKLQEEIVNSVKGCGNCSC
UniProt P61619: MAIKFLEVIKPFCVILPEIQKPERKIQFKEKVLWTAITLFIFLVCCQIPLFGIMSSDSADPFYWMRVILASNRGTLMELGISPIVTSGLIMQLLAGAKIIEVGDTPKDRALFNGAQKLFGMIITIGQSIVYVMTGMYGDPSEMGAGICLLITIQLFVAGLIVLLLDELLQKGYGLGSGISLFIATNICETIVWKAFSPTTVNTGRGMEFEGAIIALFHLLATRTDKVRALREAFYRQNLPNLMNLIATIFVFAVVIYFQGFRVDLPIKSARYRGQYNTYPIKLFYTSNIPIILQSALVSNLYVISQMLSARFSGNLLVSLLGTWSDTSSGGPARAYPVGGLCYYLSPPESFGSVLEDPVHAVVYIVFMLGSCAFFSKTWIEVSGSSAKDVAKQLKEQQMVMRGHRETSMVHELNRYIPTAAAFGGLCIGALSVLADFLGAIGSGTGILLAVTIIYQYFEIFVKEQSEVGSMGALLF
UniProt P33527: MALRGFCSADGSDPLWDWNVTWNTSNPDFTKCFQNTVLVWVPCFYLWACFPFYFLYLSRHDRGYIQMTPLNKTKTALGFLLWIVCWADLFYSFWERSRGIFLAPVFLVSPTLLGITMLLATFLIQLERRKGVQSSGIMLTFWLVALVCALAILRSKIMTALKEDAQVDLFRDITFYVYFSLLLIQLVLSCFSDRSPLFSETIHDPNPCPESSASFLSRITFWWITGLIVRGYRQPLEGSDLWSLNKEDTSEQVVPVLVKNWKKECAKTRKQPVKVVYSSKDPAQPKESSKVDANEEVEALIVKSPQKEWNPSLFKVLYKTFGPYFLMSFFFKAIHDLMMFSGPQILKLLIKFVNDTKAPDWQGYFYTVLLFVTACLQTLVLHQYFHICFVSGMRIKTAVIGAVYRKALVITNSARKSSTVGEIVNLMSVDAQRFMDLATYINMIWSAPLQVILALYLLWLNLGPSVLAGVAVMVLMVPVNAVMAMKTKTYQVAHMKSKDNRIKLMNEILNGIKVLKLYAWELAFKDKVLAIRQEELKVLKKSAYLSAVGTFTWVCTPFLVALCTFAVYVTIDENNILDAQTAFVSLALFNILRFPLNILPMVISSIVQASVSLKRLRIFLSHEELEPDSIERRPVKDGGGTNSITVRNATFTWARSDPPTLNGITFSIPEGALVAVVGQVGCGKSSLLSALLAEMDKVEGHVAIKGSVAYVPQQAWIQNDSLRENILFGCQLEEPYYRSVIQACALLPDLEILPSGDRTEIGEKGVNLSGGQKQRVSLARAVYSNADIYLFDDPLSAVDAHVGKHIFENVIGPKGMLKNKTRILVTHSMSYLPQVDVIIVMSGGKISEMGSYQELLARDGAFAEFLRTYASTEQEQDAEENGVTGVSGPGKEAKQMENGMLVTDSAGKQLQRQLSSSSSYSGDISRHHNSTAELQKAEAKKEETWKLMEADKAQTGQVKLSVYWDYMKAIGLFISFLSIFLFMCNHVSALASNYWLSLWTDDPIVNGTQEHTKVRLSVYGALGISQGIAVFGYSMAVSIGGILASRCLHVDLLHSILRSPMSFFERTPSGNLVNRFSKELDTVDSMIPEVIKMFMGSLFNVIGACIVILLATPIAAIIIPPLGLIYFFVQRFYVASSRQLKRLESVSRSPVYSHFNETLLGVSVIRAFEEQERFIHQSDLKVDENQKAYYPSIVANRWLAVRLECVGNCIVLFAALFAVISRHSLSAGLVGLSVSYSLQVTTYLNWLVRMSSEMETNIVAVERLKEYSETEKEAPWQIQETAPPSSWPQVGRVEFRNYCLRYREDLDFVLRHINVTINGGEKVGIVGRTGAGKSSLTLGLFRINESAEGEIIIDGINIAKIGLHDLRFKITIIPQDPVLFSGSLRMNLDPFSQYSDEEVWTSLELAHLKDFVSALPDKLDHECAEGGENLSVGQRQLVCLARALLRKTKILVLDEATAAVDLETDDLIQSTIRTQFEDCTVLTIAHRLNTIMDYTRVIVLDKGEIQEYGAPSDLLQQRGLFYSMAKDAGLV
UniProt Q8IXI2: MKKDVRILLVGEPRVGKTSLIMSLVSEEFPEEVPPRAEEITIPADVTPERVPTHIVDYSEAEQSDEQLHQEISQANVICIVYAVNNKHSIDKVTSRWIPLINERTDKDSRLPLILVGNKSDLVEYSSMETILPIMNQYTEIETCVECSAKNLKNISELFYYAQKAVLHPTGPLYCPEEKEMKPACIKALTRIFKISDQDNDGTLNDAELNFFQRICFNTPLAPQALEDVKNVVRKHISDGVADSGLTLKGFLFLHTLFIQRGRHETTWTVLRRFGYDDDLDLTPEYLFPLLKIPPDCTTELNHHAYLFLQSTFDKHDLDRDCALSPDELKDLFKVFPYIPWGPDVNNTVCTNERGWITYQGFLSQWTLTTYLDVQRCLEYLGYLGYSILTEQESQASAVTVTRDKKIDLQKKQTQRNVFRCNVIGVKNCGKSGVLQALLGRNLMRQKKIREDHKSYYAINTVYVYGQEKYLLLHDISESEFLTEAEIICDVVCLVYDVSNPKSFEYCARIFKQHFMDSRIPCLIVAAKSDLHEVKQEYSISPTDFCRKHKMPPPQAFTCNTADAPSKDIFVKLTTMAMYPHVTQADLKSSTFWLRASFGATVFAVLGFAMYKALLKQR
UniProt Q9UGP8: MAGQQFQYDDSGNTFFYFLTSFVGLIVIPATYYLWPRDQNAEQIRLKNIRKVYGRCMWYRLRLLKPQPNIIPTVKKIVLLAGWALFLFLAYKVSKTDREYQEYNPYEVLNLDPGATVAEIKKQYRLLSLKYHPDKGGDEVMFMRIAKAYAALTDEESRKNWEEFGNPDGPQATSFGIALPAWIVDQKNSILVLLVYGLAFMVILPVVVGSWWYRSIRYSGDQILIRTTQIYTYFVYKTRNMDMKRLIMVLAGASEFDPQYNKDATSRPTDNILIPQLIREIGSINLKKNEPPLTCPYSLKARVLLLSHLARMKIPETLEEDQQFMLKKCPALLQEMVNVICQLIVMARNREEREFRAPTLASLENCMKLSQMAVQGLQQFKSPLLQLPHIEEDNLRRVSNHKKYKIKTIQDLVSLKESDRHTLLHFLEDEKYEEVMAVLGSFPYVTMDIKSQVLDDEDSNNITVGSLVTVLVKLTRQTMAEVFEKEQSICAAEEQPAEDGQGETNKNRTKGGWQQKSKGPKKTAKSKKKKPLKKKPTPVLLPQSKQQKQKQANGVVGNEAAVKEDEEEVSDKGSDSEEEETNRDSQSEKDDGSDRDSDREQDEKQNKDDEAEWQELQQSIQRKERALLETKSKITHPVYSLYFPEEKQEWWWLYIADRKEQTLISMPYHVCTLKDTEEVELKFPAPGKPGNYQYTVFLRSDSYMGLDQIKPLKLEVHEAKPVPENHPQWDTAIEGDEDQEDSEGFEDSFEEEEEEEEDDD

Tests used:
[1] = target: FLAG-tagged PGRMC1 (human progesterone receptor membrane component 1) (human) (UniProt O00264); assay: affinity purification with mass spectrometry; FLAG-PGRMC1 stably expressed in HEK293T cells as bait; isolated mitochondria lysed, affinity purification by FLAG; prey filtered with CRAPome, fold-change threshold 2; empty-vector cells as control
[2] = target: FLAG-tagged PGRMC1 (human progesterone receptor membrane component 1) (human) (UniProt O00264); assay: affinity purification with mass spectrometry; FLAG-PGRMC1 stably expressed in HepG2 cells as bait; isolated mitochondria lysed, affinity purification by FLAG; prey filtered with CRAPome, fold-change threshold 1.5; empty-vector cells as control
[3] = target: FLAG-tagged PGRMC1 (human progesterone receptor membrane component 1) (human) (UniProt O00264); assay: affinity purification with mass spectrometry; FLAG-PGRMC1 (human) stably expressed in murine MEL cells as bait; isolated mitochondria lysed, affinity purification by FLAG; prey filtered with CRAPome, fold-change threshold 1.5; empty-vector cells as control

“ARL8B (human) (from UniProt Q9NVJ2 1-186)” was tested, and the binding [1] was “binds” and the binding [2] was “binds”.

With “ABCB7 (human) (from UniProt O75027 23-752)” the binding [1] was “binds” and the binding [2] was “binds”.

“SEC61A1 (human) (from UniProt P61619 1-476)” was tested, and the binding [1] was “binds” and the binding [2] was “binds”.

For “ABCC1 (human) (from UniProt P33527 1-1531)”, the binding [1] was “binds” and the binding [2] was “binds”.

In the case of “RHOT1 (human) (from UniProt Q8IXI2 1-618)”, the binding [1] is reported as “binds” and the binding [2] is reported as “binds”.

“SEC63 (human) (from UniProt Q9UGP8 1-760)” was tested, and the binding [1] was “binds” and the binding [2] was “binds”.

B1: ACSL1 (human) (protein, UniProt P33121 1-698)
chain: MQAHELFRYFRMPELVDFRQYVRTLPTNTLMGFGAFAALTTFWYATRPKPLKPPCDLSMQSVEVAGSGGARRSALLDSDEPLVYFYDDVTTLYEGFQRGIQVSNNGPCLGSRKPDQPYEWLSYKQVAELSECIGSALIQKGFKTAPDQFIGIFAQNRPEWVIIEQGCFAYSMVIVPLYDTLGNEAITYIVNKAELSLVFVDKPEKAKLLLEGVENKLIPGLKIIVVMDAYGSELVERGQRCGVEVTSMKAMEDLGRANRRKPKPPAPEDLAVICFTSGTTGNPKGAMVTHRNIVSDCSAFVKATENTVNPCPDDTLISFLPLAHMFERVVECVMLCHGAKIGFFQGDIRLLMDDLKVLQPTVFPVVPRLLNRMFDRIFGQANTTLKRWLLDFASKRKEAELRSGIIRNNSLWDRLIFHKVQSSLGGRVRLMVTGAAPVSATVLTFLRAALGCQFYEGYGQTECTAGCCLTMPGDWTAGHVGAPMPCNLIKLVDVEEMNYMAAEGEGEVCVKGPNVFQGYLKDPAKTAEALDKDGWLHTGDIGKWLPNGTLKIIDRKKHIFKLAQGEYIAPEKIENIYMRSEPVAQVFVHGESLQAFLIAIVVPDVETLCSWAQKRGFEGSFEELCRNKDVKKAILEDMVRLGKDSGLKPFEQVKGITLHPELFSIDNGLLTPTMKAKRPELRNYFRSQIDDLYSTIKV
For B1, the binding [1] was “binds” and the binding [2] was “binds”.

B2: TMEM214 (mouse) (protein, UniProt Q8BM55 1-687)
chain: MAARSAGSGGWEVVKRGRRPGASSGGRGGGGGSDRRALGEANGVLKYDLSSPIQTTSTLYERGFEKIMKRQNKEQVPPPAAESKKPINKKQPKKVTAVPSQNQKQGPFRRLEDALKALDVAALQKELDKSQSVFTGNPSVWLKDLASYLNYKLQTPRMEPTLSQYPHDYPYSLVSRELRGIIRGLLTKAAGSVELFFDHCLFTMLQELDKTPGESLHGYRICIQAVLQDKPKIVTSNLDKFLELLRSHQSRPAKCLTIMWALGQAGFTNLTEGLKVWLGIMLPVLGIKALSPFAIAYLDRLLLMHPNLTKGFGMIGPKDFFPLLDFAYMPNNSLSPSLQEQLCQLFPRLKVLAFGAKPESSLHTYFPSFLSRATPSCPAAMKKELLASLTQCLTVDPLSTSVWRQLYPKHLSQSSLLLEHLLKSWEHIPKKARKSLQETIQSLKVTNQELLKKGSGGSEHVLTCDTACKGLLQRARGPRPPWARLFLLLLVFAVGFLCHDLRSNSSLQASLTGRLLRSSGLLPVGQQVCARLSSYSLQSYNWLQETLPACGSHLLAVVQPSLQLAWTHIYAIFSFLSAHCASYLACFSDSLAGFFQRVQLPEALQQLFHALKELLLLFCHSVLLPTWHLLLAALAQVQEHCHEACRGDVTWDCIKTQLSRAAQWTWLCLQDVTVAFLDWALTMISQQ
B2 was tested, and the binding [3] was “binds”.

B3: ARL8B (mouse) (protein, UniProt Q9CQW2 1-186)
chain: MLALISRLLDWFRSLFWKEEMELTLVGLQYSGKTTFVNVIASGQFSEDMIPTVGFNMRKVTKGNVTIKIWDIGGQPRFRSMWERYCRGVNAIVYMIDAADREKIEASRNELHNLLDKPQLQGIPVLVLGNKRDLPNALDEKQLIEKMNLSAIQDREICCYSISCKEKDNIDITLQWLIQHSKSRRS
B3 was tested, and the binding [3] was “binds”.

B4: BDH1 (mouse) (protein, UniProt Q80XN0 47-343)
chain: ASQADAASGKAILITGCDSGFGFSLAKHLHSKGFLVFAGCLMKDKGDAGVKELDSLKSDRLRTIQLNVCNSEEVEKAVETIRSGLKDPEKGMWGLVNNAGISTFGEVEFTSMETYKEVAEVNLWGTVRTTKSFLPLLRRAKGRVVNISSMLGRMANPARSPYCITKFGIEAFSDCLRYEMHPLGVKVSVVEPGNFIAATSLYSPERIQAIAKKMWDDLPEVVRKDYGRKYFDEKIAKMETYCNSGSTDTSSVINAVTHALTAATPYTRYHPMDYYWWLRMQIMTHFPGAISDKIYIH
For B4, the binding [3] was “binds”.

B5: RPN1 (mouse) (protein, UniProt Q91YQ5 26-608)
chain: SSEAPPLVNEDVKRTVDLSSHLAKVTAEVVLVHPGGGSTSRASSFVLALEPELESRLAHLGVQIKGEDEEDNNLEVRETKIKGKSGRFFTVKLPVALDPGSKISVVVETVYTHVLHPYPTQITQSEKQFVVFEGNHYFYSPYPTKTQTMRVKLASRNVESYTKLGNPSRSEDVLDYGPFKDIPAYSQDTFKVHYENNSPFLTITSMTRVIEVSHWGNIAVEENVDLKHTGAVLKGPFSRYDYQRQPDSGISSIRSFKTILPAAAQDVYYRDEIGNVSTSHLLILDDSVEMEIRPRFPLFGGWKTHYIVGYNLPSYEYLYNLGDQYALKMRFVDHVFDEQVIDSLTVKIILPEGAKNIQVDSPYDISRAPDELHYTYLDTFGRPVIVAYKKNLVEQHIQDIVVHYTFNKVLMLQEPLLVVAAFYILFFTVIIYVRLDFSITKDPAAEARMKVACITEQVLTLVNKRLGLYRHFDETVNRYKQSRDISTLNSGKKSLETEHKAVTSEIAVLQSRLKTEGSDLCDRVSEMQKLDAQVKELVLKSAVEAERLVAGKLKKDTYLENEKLSSGKRQELVTKIDHILDAL
With B5 the binding [3] was “binds”.

B6: ABCD3 (mouse) (protein, UniProt P55096 1-659)
chain: MAAFSKYLTARNTSLAGAAFLLLCLLHKRRRALGLHGKKSGKPPLQNNEKEGKKERAVVDKVFLSRLSQILKIMVPRTFCKETGYLLLIAVMLVSRTYCDVWMIQNGTLIESGIIGRSSKDFKRYLFNFIAAMPLISLVNNFLKYGLNELKLCFRVRLTRYLYEEYLQAFTYYKMGNLDNRIANPDQLLTQDVEKFCNSVVDLYSNLSKPFLDIVLYIFKLTSAIGAQGPASMMAYLLVSGLFLTRLRRPIGKMTIMEQKYEGEYRYVNSRLITNSEEIAFYNGNKREKQTIHSVFRKLVEHLHNFIFFRFSMGFIDSIIAKYVATVVGYLVVSRPFLDLAHPRHLHSTHSELLEDYYQSGRMLLRMSQALGRIVLAGREMTRLAGFTARITELMQVLKDLNHGRYERTMVSQQEKGIEGAQASPLVPGAGEIINTDNIIKFDHVPLATPNGDILIQDLSFEVRSGANVLICGPNGCGKSSLFRVLGELWPLFGGRLTKPERGKLFYVPQRPYMTLGTLRDQVIYPDGKEDQKKRGISDQVLKEYLDNVQLGHILEREGGWDSVQDWMDVLSGGEKQRMAMARLFYHKPQFAILDECTSAVSVDVEDYIYSHCRKVGITLFTVSHRKSLWKHHEYYLHMDGRGNYEFKKITEDTVEFGS
For B6, the binding [3] was “binds”.

B7: ferrochelatase (mouse) (enzyme, UniProt P22315 54-422)
chain: TTKPQAQPERRKPKTGILMLNMGGPETLGEVQDFLQRLFLDRDLMTLPIQNKLAPFIAKRRTPKIQEQYRRIGGGSPIKMWTSKQGEGMVKLLDELSPATAPHKYYIGFRYVHPLTEEAIEEMERDGLERAIAFTQYPQYSCSTTGSSLNAIYRYYNEVGQKPTMKWSTIDRWPTHPLLIQCFADHILKELNHFPEEKRSEVVILFSAHSLPMSVVNRGDPYPQEVGATVHKVMEKLGYPNPYRLVWQSKVGPVPWLGPQTDEAIKGLCERGRKNILLVPIAFTSDHIETLYELDIEYSQVLAQKCGAENIRRAESLNGNPLFSKALADLVHSHIQSNKLCSTQLSLNCPLCVNPVCRKTKSFFTSQQL
For B7, the binding [3] was “binds”.
